Reference: PubChem BioAssay AID1259254 (NCATS, 2017)
The whole screen tested about 59,000 reagents; shown is a part drawn at random. About 1,550 of them (2.6%) count as active. 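G2 share is only a proxy for re-replication; each gene was hit by three separate siRNAs, and active genes were retested.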 Reagents against one gene are numbered here. Not all columns of the deposit are shown. The record does not give: the amount of reagent.

Aim: 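Gene knock-downs that lead to re-replication, shown by excess G2 DNA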 (primary screen)
Cells: human HCT116 colorectal cancer cells
Reagent: single siRNA against human genes
Timing: 3 days
Read-out: 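Nuclei stained with Hoechst and imaged; cell-cycle phase assigned by DNA content; G2 share scaled per plate, non-targeting siRNA 0%, GMNN siRNA 100%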
Direction: G2 robust z-score and G2 cells, % of GMNN control: higher = more G2 cells, more excess DNA replication
Active means: 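An siRNA counts as active if its G2 robust z-score lies at least 5 MADs above the screen median; here such calls match roughly 38% of GMNN control or more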

target gene	reagent	G2 robust z-score	G2 cells, % of GMNN control	Outcome
ACSF3	1	-0.165	1.81	inactive
ACSF3	2	1.12	10.9	inactive
ACSF3	3	-0.811	-2.74	inactive
LTB4R2	1	0.331	5.3	inactive
LTB4R2	2	-0.53	-0.764	inactive
LTB4R2	3	3.4	26.9	inactive
IQCJ	1	0.828	8.79	inactive
IQCJ	2	1.25	11.8	inactive
IQCJ	3	-0.316	0.747	inactive
GFM2	1	1.06	10.4	inactive
GFM2	2	-0.662	-1.69	inactive
GFM2	3	-0.333	0.624	inactive
ASCL4	1	-0.0168	2.85	inactive
ASCL4	2	2.25	18.8	inactive
ASCL4	3	0.122	3.82	inactive
POLD1	1	1.61	14.3	inactive
POLD1	2	4.27	33	inactive
POLD1	3	4.07	31.6	inactive
SCGB2B2	1	-0.957	-3.76	inactive
SCGB2B2	2	1.46	13.2	inactive
SCGB2B2	3	0.538	6.75	inactive
RACGAP1	1	3.98	31	inactive
RACGAP1	2	4	31.1	inactive
RACGAP1	3	7.58	56.3	active
SLC25A1	1	-1.59	-8.18	inactive
SLC25A1	2	-1.35	-6.52	inactive
SLC25A1	3	-0.498	-0.538	inactive
POLR2L	1	1.49	13.5	inactive
POLR2L	2	-1.09	-4.74	inactive
POLR2L	3	0.65	7.54	inactive
PCDHB13	1	-0.0871	2.35	inactive
PCDHB13	2	-0.917	-3.48	inactive
PCDHB13	3	0.71	7.96	inactive
MAP7D3	1	-0.103	2.24	inactive
MAP7D3	2	-0.755	-2.34	inactive
MAP7D3	3	3.36	26.6	inactive
MVB12A	1	2.45	20.2	inactive
MVB12A	2	0.0848	3.56	inactive
MVB12A	3	0.813	8.69	inactive
VPS26B	1	-0.385	0.259	inactive
VPS26B	2	-0.356	0.46	inactive
VPS26B	3	-0.35	0.505	inactive
IL17C	1	-0.189	1.64	inactive
IL17C	2	-0.124	2.09	inactive
IL17C	3	-0.193	1.61	inactive
TPMT	1	-0.962	-3.8	inactive
TPMT	2	-0.188	1.64	inactive
TPMT	3	-0.265	1.11	inactive

5 entries from above, arranged by “G2 cells, % of GMNN control”, lowest first:
target gene	reagent	G2 robust z-score	G2 cells, % of GMNN control	Outcome
MAP7D3	2	-0.755	-2.34	inactive
MVB12A	2	0.0848	3.56	inactive
MVB12A	3	0.813	8.69	inactive
MVB12A	1	2.45	20.2	inactive
MAP7D3	3	3.36	26.6	inactive
